Compound in this test: CC1Cc2ccccc2N1C(=O)C1CCCN(C1)C(=O)CCl (mixture of isomers) [TRIM25 ligand 11 (diastereomer mixture)]
Put plainly: probe-labelled cysteine peptide fold change vs DMSO (competition) (log2 fold change); higher = less target engagement (more negative = stronger competition). Conditions: THP-1, incubation time: 4 h.

Chains of the proteins cited; added tags and fusions are not shown. Lines headed by an entry give the natural chain unless they say otherwise; changes in a name come on top.
UniProt Q8IZT6: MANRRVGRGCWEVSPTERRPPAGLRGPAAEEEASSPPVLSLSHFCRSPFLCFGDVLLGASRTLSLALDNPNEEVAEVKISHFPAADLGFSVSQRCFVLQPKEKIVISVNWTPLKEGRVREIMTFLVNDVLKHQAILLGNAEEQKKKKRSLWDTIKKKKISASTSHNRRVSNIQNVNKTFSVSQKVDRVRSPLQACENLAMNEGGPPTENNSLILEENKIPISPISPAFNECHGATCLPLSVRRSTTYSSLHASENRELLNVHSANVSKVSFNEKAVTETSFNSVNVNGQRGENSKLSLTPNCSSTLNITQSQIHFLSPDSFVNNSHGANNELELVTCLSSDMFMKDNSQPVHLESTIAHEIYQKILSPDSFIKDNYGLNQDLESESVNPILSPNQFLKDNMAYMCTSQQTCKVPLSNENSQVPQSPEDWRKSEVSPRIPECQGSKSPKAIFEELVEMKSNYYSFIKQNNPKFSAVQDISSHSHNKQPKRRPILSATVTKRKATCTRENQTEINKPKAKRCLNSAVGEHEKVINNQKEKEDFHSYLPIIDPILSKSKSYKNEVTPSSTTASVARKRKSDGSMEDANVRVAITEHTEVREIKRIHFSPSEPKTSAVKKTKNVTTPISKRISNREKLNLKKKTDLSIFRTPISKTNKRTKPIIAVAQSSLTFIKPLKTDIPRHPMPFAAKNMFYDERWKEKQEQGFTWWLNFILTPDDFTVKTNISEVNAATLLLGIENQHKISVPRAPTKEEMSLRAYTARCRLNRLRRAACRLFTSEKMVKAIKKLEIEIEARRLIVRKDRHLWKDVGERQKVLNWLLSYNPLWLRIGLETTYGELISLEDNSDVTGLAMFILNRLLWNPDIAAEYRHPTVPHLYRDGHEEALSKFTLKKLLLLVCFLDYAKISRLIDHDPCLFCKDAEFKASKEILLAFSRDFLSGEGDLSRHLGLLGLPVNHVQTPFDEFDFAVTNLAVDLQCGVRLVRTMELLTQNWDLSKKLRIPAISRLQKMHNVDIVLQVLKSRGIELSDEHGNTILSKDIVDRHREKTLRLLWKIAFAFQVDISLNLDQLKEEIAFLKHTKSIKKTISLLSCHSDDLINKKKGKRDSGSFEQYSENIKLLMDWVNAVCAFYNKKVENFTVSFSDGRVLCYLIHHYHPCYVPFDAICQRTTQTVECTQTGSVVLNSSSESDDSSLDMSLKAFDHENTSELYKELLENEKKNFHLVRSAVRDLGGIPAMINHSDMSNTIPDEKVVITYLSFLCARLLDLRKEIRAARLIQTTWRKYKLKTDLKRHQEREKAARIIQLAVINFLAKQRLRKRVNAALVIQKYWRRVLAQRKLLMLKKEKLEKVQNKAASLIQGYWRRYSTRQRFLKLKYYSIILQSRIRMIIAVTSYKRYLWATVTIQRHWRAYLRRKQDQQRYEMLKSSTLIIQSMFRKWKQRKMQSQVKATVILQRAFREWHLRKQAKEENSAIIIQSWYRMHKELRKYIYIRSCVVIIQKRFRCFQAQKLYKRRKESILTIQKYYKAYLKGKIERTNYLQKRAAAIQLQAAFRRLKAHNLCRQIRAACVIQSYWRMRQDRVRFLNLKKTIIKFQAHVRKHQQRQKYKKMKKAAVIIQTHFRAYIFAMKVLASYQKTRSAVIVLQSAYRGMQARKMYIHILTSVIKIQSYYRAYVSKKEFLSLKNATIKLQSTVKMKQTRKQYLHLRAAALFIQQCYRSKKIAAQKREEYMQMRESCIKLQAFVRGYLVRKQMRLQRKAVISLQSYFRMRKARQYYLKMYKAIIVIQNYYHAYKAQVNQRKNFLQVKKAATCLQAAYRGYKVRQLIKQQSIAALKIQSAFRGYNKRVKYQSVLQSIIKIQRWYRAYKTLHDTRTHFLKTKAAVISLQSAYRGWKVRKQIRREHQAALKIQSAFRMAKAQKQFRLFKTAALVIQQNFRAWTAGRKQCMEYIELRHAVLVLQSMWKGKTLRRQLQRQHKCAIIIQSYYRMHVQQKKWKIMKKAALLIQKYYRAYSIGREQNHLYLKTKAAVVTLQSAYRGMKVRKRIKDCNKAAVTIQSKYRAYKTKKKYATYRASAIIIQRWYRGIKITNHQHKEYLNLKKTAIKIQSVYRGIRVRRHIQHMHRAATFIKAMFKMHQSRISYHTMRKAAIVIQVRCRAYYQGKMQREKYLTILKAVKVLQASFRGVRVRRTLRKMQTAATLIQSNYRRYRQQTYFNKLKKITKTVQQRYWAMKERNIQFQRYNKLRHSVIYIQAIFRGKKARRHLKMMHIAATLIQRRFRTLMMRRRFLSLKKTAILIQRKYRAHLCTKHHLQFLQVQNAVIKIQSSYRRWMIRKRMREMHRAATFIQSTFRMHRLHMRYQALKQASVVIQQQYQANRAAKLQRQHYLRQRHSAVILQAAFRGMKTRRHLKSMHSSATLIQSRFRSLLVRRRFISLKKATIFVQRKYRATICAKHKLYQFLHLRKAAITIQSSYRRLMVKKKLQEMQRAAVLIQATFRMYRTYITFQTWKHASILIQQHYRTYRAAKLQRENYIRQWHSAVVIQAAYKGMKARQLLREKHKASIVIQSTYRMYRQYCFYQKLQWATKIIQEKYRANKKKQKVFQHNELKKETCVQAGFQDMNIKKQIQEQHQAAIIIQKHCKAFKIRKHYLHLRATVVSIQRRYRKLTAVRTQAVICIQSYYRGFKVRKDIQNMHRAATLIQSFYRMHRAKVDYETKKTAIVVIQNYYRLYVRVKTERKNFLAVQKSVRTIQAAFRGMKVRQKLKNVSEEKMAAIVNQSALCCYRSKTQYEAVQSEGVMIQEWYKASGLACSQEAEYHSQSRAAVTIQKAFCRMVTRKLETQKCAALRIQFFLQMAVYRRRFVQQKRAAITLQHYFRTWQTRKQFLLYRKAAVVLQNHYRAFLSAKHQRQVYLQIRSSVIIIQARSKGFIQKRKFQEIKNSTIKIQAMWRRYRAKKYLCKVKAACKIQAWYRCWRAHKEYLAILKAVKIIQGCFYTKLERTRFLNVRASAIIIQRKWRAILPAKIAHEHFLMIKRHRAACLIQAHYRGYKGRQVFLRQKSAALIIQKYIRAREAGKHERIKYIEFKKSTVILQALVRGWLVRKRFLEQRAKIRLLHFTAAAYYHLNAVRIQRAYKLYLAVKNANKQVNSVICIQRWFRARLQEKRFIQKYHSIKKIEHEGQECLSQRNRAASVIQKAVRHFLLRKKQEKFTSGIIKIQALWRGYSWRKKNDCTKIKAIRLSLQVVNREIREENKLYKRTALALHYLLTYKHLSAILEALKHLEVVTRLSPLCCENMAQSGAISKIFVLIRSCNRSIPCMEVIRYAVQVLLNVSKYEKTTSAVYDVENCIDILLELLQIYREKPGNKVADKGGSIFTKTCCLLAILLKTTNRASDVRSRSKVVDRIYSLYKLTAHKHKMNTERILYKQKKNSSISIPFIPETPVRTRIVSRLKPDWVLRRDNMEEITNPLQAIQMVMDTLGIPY
UniProt O75947: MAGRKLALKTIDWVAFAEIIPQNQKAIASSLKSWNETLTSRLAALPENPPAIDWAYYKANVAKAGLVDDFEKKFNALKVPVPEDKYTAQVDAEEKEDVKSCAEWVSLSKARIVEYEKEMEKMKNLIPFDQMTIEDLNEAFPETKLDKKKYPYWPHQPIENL
UniProt P15848: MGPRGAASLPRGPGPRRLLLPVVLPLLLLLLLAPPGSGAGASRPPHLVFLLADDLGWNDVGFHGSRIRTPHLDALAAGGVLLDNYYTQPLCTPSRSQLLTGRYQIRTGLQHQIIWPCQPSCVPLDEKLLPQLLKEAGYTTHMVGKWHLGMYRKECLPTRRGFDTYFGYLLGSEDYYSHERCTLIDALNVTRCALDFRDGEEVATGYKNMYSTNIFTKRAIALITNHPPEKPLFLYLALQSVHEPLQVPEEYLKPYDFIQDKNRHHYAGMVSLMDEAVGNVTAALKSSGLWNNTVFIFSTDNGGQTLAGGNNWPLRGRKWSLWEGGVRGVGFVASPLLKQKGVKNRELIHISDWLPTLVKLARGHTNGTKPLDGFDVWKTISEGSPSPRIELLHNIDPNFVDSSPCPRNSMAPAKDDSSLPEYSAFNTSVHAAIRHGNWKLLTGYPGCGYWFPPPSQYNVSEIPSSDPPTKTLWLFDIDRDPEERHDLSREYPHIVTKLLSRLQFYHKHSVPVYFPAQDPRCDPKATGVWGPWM
UniProt Q96DT6: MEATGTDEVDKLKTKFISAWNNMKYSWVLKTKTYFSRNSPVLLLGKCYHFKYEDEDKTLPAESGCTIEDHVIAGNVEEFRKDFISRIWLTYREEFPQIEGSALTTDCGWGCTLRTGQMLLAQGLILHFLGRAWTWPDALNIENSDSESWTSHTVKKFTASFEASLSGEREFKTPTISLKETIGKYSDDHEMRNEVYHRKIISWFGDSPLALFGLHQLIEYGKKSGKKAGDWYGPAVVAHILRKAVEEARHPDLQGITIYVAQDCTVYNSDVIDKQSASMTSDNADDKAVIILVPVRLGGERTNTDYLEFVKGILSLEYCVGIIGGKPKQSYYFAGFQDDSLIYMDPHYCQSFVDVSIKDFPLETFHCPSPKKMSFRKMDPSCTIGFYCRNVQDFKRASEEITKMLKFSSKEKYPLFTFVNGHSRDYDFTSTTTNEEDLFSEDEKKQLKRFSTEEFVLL
UniProt Q676U5: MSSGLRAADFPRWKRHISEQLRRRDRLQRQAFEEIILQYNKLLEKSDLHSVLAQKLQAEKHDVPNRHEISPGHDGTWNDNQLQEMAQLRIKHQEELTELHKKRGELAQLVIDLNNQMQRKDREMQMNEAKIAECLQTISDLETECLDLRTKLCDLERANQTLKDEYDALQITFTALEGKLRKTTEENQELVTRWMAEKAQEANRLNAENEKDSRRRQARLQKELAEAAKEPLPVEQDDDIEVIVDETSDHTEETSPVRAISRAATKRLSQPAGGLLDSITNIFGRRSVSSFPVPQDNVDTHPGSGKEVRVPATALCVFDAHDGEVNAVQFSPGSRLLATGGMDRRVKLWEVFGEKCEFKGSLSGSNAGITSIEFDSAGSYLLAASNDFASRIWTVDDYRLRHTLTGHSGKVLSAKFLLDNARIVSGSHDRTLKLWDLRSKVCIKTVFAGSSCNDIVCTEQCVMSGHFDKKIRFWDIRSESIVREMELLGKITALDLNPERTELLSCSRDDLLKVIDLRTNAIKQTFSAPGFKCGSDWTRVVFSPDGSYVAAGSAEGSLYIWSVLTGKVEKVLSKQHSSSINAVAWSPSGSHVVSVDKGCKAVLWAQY
UniProt P10275: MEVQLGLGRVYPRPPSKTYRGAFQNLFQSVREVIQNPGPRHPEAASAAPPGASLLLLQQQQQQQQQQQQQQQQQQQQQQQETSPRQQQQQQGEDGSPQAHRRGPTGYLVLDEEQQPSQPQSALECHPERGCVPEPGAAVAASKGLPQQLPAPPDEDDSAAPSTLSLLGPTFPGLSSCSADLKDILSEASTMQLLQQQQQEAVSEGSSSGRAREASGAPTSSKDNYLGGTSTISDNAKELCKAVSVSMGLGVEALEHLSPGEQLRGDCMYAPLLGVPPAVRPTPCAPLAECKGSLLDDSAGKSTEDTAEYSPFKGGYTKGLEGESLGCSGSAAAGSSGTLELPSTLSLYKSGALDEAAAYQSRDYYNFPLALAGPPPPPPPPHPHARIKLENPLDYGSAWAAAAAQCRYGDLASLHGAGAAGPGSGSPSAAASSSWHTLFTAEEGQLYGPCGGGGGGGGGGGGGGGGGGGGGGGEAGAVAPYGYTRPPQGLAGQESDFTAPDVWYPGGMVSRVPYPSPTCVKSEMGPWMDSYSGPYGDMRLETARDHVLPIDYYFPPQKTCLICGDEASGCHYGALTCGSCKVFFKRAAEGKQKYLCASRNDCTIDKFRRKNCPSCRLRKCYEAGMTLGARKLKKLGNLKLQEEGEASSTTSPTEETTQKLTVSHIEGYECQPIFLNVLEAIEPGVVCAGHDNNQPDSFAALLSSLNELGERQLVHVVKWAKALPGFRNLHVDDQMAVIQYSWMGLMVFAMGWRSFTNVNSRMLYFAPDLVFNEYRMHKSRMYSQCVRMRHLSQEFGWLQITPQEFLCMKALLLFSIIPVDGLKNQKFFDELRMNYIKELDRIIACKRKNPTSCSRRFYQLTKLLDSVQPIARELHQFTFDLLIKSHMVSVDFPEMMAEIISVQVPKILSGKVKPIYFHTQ
UniProt Q9Y4P1: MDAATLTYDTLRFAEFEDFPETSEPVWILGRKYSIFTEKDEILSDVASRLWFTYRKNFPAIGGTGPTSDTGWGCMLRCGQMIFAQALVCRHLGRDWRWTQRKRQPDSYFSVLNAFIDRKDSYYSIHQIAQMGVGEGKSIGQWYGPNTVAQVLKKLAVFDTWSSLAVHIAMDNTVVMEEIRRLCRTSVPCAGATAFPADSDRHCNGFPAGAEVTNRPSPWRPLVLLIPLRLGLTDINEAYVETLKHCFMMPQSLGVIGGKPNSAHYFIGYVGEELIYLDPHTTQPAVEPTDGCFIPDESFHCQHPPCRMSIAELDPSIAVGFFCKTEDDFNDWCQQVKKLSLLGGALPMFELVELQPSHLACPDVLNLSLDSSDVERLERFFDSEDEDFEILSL

The results in this text go back to the supplement of paper PMC12067093, “Discovery and optimisation of a covalent ligand for TRIM25 and its application to targeted protein ubiquitination” (Chemical Science, 2025).

The other results are listed elsewhere or left out.
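Further: competitive chemoproteomic profiling in live THP-1 cells with an iodoacetamide desthiobiotin (IA-DTB) probe, comparing probe-labelled peptide intensities in compound-treated cells against DMSO-treated controls.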

Regarding “ASMTL_O95671_274_AEAGEAGQATAEAECHR (UniProt O95671)”, the “probe-labelled cysteine peptide fold change” value by setting is: (10 µM) -0.103; (50 µM) -0.158.
Taken in the same sequence, the figures for “ASPM_Q8IZT6_441_IPECQGSK (UniProt Q8IZT6)” were 0.063 and -0.0812.
Taken in the same sequence, the figures for “ATP5PD_O75947_101_SCAEWVSLSK (UniProt O75947)” were -0.282 and -0.438.
For “ATAD2_Q6PL18_1246_NNSNTCNIENELEDSRK (UniProt Q6PL18)” the same measures were -0.0402 and -0.126.
On to “ARSB_P15848_121_TGLQHQIIWPCQPSCVPLDEK (UniProt P15848)”, for which the “probe-labelled cysteine peptide fold change” value was 0.262 (10 µM) and 0.383 (50 µM).
Taken in the same sequence, the figures for “ATG4C_Q96DT6_65_TLPAESGCTIEDHVIAGNVEEFRK (UniProt Q96DT6)” were 0.0384 and 0.00844.
Taken in the same sequence, the figures for “ATP13A1_Q9HD20_18_AAAAAVGNAVPCGARPCGVRPDGQPKPGPQPR (UniProt Q9HD20)” were -0.187 and -0.278.
For “ATG16L1_Q676U5_506_TELLSCSR (UniProt Q676U5)”, the “probe-labelled cysteine peptide fold change” value was 0.101 (10 µM) and -0.251 (50 µM).
Take “ASCC3_Q8N3C0_1535_QMGLFNFRPSVRPVPLEVHIQGFPGQHYCPR (UniProt Q8N3C0)”: the “probe-labelled cysteine peptide fold change” value (10 µM) is 0.117 and the “probe-labelled cysteine peptide fold change” value (50 µM) was -0.0767.
Consider “ASCC3_Q8N3C0_1283_WLGAEAVCIINFQHLILPER (UniProt Q8N3C0)”, for which the “probe-labelled cysteine peptide fold change” value reads like this: (10 µM) -0.0153; (50 µM) 0.0434.
Taken in the same sequence, the figures for “ATG7_O95352_406_QPLYEFEDCLGGGKPK (UniProt O95352)” were -0.0601 and -0.0833.
Regarding AR_P10275_602_NDCTIDK (UniProt P10275), the “probe-labelled cysteine peptide fold change” value is -0.064 (10 µM) and -0.0782 (50 µM).
On to “ATG16L1_Q676U5_533_CGSDWTR (UniProt Q676U5)”, for which the “probe-labelled cysteine peptide fold change” value reads like this: (10 µM) 0.0178; (50 µM) 0.0689.
For “ATG4B_Q9Y4P1_189_TSVPCAGATAFPADSDR (UniProt Q9Y4P1)” the same measures were 0.197 and -0.0259.
“ATP2B4_P23634_24_EGDFGCTVMELRK (UniProt P23634)”: the “probe-labelled cysteine peptide fold change” value is, setting by setting: (10 µM) -0.361; (50 µM) -0.428.
As for “ATP2C1_P98194_348_KLPIVETLGCCNVICSDK (UniProt P98194)”, the “probe-labelled cysteine peptide fold change” value by setting is: (10 µM) 0.0821; (50 µM) 0.175.
On to “ATP13A1_Q9HD20_574_ALASCHSLMQLDDGTLVGDPLEK (UniProt Q9HD20)”, for which the “probe-labelled cysteine peptide fold change” value was 0.26 (10 µM) and -0.189 (50 µM).
Taken in the same sequence, the figures for “ATIC_P31939_325_MSSFGDFVALSDVCDVPTAK (UniProt P31939)” were -0.144 and -0.188.
